PubChem BioAssay AID1508597 | Cure First – 2020
Screen: 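Knock-downs altering ovarian cancer cell survival with or without PARP inhibitor rucaparib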 (primary screen). System: human ovarian carcinoma lines grown from tumours: OCI-P5x (papillary serous) and OCI-C5x (clear cell). Reagent: siRNA pool against human genes, 1.25 pmol siRNA per well. Time to read-out: 72 h or 96 h, depending on the cell culture. Treatment: rucaparib 20 µM (about IC30) or vehicle, present until read-out. Rucaparib or vehicle: Vehicle. Cell line: OCI-C5x (clear cell). Detection: 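Luminescent ATP-based viability assay read 72 or 96 h after transfection, depending on culture, given as normalised percent viability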. Reading the numbers: viability, normalised: higher = more viable cells remaining. Hit rule: 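Active when normalised viability falls below 80 percent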. Meaning of the calls: active = viability under 80%; inactive = viability 80% or more.
Shown is an unselected part of the about 2,100 reagents, under one of the conditions tested. 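Calls flag viability under 80% in either arm, not effects specific to rucaparib; the reference for percent is not stated.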 Entries without a mark were called inactive. Some reagents were tested in more than one well and are listed for each. Reagent sequences are not shown. Not stated in the record: the 100% reference.

gene | PubChem SID | technical replicate | viability, normalised (%)
STK10 (serine/threonine kinase 10) | SID405528576 | 1 | 68.3 (active)
STK10 (serine/threonine kinase 10) | SID405528576 | 2 | 55 (active)
STK10 (serine/threonine kinase 10) | SID405528576 | 3 | 49.8 (active)
IGF2R (insulin like growth factor 2 receptor) | SID405526364 | 1 | 77.9 (active)
IGF2R (insulin like growth factor 2 receptor) | SID405526364 | 2 | 48.1 (active)
IGF2R (insulin like growth factor 2 receptor) | SID405526364 | 3 | 39.6 (active)
MST1R (macrophage stimulating 1 receptor) | SID405527471 | 1 | 46.8 (active)
MST1R (macrophage stimulating 1 receptor) | SID405527471 | 2 | 36.7 (active)
MST1R (macrophage stimulating 1 receptor) | SID405527471 | 3 | 41.4 (active)
RPA2 (replication protein A2) | SID405528321 | 1 | 41 (active)
RPA2 (replication protein A2) | SID405528321 | 2 | 36.2 (active)
RPA2 (replication protein A2) | SID405528321 | 3 | 35.5 (active)
DDX3Y (DEAD-box helicase 3 Y-linked) | SID405528186 | 1 | 46.5 (active)
DDX3Y (DEAD-box helicase 3 Y-linked) | SID405528186 | 2 | 57.1 (active)
DDX3Y (DEAD-box helicase 3 Y-linked) | SID405528186 | 3 | 34 (active)
PHIP (PHIP subunit of CUL4-Ring ligase complex) | SID405527159 | 1 | 51.3 (active)
PHIP (PHIP subunit of CUL4-Ring ligase complex) | SID405527159 | 2 | 49.7 (active)
PHIP (PHIP subunit of CUL4-Ring ligase complex) | SID405527159 | 3 | 58.7 (active)
SIRT1 (sirtuin 1) | SID405527299 | 1 | 23.8 (active)
SIRT1 (sirtuin 1) | SID405527299 | 1 | 69.5 (active)
SIRT1 (sirtuin 1) | SID405527299 | 2 | 36 (active)
SIRT1 (sirtuin 1) | SID405527299 | 2 | 84.9
SIRT1 (sirtuin 1) | SID405527299 | 3 | 35.7 (active)
SIRT1 (sirtuin 1) | SID405527299 | 3 | 94.3
PDP1 (pyruvate dehydrogenase phosphatase catalytic subunit 1) | SID405526393 | 1 | 99.5
PDP1 (pyruvate dehydrogenase phosphatase catalytic subunit 1) | SID405526393 | 2 | 68.4 (active)
PDP1 (pyruvate dehydrogenase phosphatase catalytic subunit 1) | SID405526393 | 3 | 64.5 (active)
PMAIP1 (phorbol-12-myristate-13-acetate-induced protein 1) | SID405527169 | 1 | 51.2 (active)
PMAIP1 (phorbol-12-myristate-13-acetate-induced protein 1) | SID405527169 | 2 | 39.4 (active)
PMAIP1 (phorbol-12-myristate-13-acetate-induced protein 1) | SID405527169 | 3 | 44.4 (active)
HHEX (hematopoietically expressed homeobox) | SID405526857 | 1 | 91.9
HHEX (hematopoietically expressed homeobox) | SID405526857 | 2 | 54.4 (active)
HHEX (hematopoietically expressed homeobox) | SID405526857 | 3 | 92.9
TOP1 (DNA topoisomerase I) | SID405528377 | 1 | 62.9 (active)
TOP1 (DNA topoisomerase I) | SID405528377 | 2 | 61 (active)
TOP1 (DNA topoisomerase I) | SID405528377 | 3 | 46.6 (active)
GADD45A (growth arrest and DNA damage inducible alpha) | SID405528358 | 1 | 64.4 (active)
GADD45A (growth arrest and DNA damage inducible alpha) | SID405528358 | 2 | 71.1 (active)
GADD45A (growth arrest and DNA damage inducible alpha) | SID405528358 | 3 | 73.7 (active)
PARP15 (poly(ADP-ribose) polymerase family member 15) | SID405527109 | 1 | 18.6 (active)
PARP15 (poly(ADP-ribose) polymerase family member 15) | SID405527109 | 2 | 17.5 (active)
PARP15 (poly(ADP-ribose) polymerase family member 15) | SID405527109 | 3 | 20.9 (active)
GLI3 (GLI family zinc finger 3) | SID405526817 | 1 | 57.8 (active)
GLI3 (GLI family zinc finger 3) | SID405526817 | 2 | 62.3 (active)
GLI3 (GLI family zinc finger 3) | SID405526817 | 3 | 75.9 (active)
ATM (ATM serine/threonine kinase) | SID405527507 | 1 | 41.7 (active)
ATM (ATM serine/threonine kinase) | SID405527507 | 1 | 53.2 (active)
ATM (ATM serine/threonine kinase) | SID405527507 | 2 | 71.1 (active)
ATM (ATM serine/threonine kinase) | SID405527507 | 2 | 63 (active)
ATM (ATM serine/threonine kinase) | SID405527507 | 3 | 51.4 (active)
ATM (ATM serine/threonine kinase) | SID405527507 | 3 | 49.7 (active)
AK2 (adenylate kinase 2) | SID405527916 | 1 | 49 (active)
AK2 (adenylate kinase 2) | SID405527916 | 2 | 54.2 (active)
AK2 (adenylate kinase 2) | SID405527916 | 3 | 51.9 (active)
ONECUT1 (one cut homeobox 1) | SID405527098 | 1 | 30.1 (active)
ONECUT1 (one cut homeobox 1) | SID405527098 | 2 | 38.1 (active)
ONECUT1 (one cut homeobox 1) | SID405527098 | 3 | 54.3 (active)

9 entries from above, arranged by “viability, normalised (%)”, high to low.
gene | PubChem SID | technical replicate | viability, normalised (%)
HHEX (hematopoietically expressed homeobox) | SID405526857 | 3 | 92.9
HHEX (hematopoietically expressed homeobox) | SID405526857 | 1 | 91.9
GADD45A (growth arrest and DNA damage inducible alpha) | SID405528358 | 2 | 71.1 (active)
GADD45A (growth arrest and DNA damage inducible alpha) | SID405528358 | 1 | 64.4 (active)
TOP1 (DNA topoisomerase I) | SID405528377 | 1 | 62.9 (active)
TOP1 (DNA topoisomerase I) | SID405528377 | 2 | 61 (active)
HHEX (hematopoietically expressed homeobox) | SID405526857 | 2 | 54.4 (active)
TOP1 (DNA topoisomerase I) | SID405528377 | 3 | 46.6 (active)
PMAIP1 (phorbol-12-myristate-13-acetate-induced protein 1) | SID405527169 | 3 | 44.4 (active)
